Data reported in publication PMC9947422.
Results are given in words; binding and its absence hold for the method and conditions named. In cells and extracts the contact can be indirect. Some entries that bind do so weakly or less than the wild type. For some of these results: Sequences can lack the tags named with a protein. Values belong to the molecule of their own block, whether it stands above or below them.

Chains of the proteins cited; added tags and fusions are not shown. Residues count along the entry.
UniProt Q8NE86, residues 51-351: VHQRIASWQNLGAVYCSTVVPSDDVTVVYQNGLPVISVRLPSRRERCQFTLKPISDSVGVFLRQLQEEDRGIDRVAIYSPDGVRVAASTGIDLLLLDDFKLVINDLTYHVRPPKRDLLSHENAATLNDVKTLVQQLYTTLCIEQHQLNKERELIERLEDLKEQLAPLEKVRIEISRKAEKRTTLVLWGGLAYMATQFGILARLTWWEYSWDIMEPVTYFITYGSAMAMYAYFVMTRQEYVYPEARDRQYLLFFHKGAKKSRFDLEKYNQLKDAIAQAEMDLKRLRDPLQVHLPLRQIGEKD

Key:
[1] = target: T1, Mitochondrial methionyl-tRNA synthetase (MARS2), endogenous in A549 cells (human (endogenous in A549)) (UniProt Q96GW9); assay: co-IP; endogenous IP from A549 lysate (25 mM Tris, 15 mM NaCl, 1 mM EDTA, 1% NP-40, 5% glycerol, pH 7.4); anti-MARS2 or anti-MCU antibody overnight at 4 °C, Protein-A Agarose, Western blot
T1 sequence: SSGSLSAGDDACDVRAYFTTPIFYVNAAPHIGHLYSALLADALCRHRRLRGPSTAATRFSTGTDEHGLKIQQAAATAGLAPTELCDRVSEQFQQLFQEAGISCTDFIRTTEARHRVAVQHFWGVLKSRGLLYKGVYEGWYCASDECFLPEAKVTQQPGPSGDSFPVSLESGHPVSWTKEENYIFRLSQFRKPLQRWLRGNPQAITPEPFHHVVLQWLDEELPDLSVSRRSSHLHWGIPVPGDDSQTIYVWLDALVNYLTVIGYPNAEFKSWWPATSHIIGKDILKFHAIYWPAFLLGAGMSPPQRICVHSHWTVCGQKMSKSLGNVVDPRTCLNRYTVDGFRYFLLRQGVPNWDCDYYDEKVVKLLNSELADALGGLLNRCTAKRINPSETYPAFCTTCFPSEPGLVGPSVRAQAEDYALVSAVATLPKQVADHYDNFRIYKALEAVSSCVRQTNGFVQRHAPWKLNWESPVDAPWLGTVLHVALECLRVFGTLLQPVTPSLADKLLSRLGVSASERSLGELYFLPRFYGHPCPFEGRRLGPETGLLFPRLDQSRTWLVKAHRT

[2] = target: T2, FLAG-MARS2 fusion protein (Flag-tagged MARS2 ORF from pCMV-Tag 2B-MARS2) (human) (UniProt Q96GW9); assay: co-IP; exogenous IP: lysate of HEK293T cells overexpressing Flag-MARS2 (150 mM NaCl, 25 mM HEPES-KOH pH 7.5, 0.5% Triton X-100), anti-FLAG M2 affinity gel 2 h at 4 °C; Western blot with anti-MCU antibody; beads also treated with L-methionine, L-histidine or L-homocysteine (0, 1.25 and 2.5 mM) for 2 h at 4 °C
T2 sequence: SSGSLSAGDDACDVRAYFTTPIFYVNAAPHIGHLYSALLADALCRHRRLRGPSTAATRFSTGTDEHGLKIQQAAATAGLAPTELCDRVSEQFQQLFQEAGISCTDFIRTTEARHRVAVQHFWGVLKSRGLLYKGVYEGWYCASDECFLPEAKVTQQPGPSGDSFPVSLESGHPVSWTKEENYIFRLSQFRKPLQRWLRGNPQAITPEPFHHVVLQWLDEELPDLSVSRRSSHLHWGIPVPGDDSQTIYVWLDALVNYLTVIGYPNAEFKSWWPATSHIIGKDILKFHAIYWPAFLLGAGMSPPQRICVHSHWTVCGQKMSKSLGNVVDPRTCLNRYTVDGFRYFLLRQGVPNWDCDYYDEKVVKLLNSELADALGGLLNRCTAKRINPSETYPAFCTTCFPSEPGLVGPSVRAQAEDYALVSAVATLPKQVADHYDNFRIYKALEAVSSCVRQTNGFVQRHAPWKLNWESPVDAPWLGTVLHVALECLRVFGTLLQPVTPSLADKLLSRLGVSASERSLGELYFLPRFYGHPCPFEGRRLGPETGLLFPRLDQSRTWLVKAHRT

[3] = target: T2, FLAG-MARS2 fusion protein (Flag-tagged MARS2 ORF from pCMV-Tag 2B-MARS2) (human); assay: FRET or BRET; bead-associated FLAG-MARS2-MCU immunocomplex from HEK293T lysate labelled with secondary antibodies conjugated with Alexa Fluor 488 (MARS2) and Alexa Fluor 555 (MCU); 488 nm excitation, emission ratio 520 nm/570 nm; with L-methionine, L-histidine or L-homocysteine (0, 1.25 and 2.5 mM)
[4] = target: Mitochondrial calcium uniporter (MCU), endogenous in A549 cells (human (endogenous in A549)) (UniProt Q8NE86); assay: co-IP; endogenous IP from A549 lysate (25 mM Tris, 15 mM NaCl, 1 mM EDTA, 1% NP-40, 5% glycerol, pH 7.4); anti-MARS2 or anti-MCU antibody overnight at 4 °C, Protein-A Agarose, Western blot

binding [1]: binds
Molecule: Mitochondrial calcium uniporter (MCU), endogenous in A549 cells (from UniProt Q8NE86 51-351)

binding [2]: binds
binding [3]: binds
Molecule: Mitochondrial calcium uniporter (MCU), endogenous in HEK293T cells (from UniProt Q8NE86 51-351)

binding [4]: binds
B1: Mitochondrial methionyl-tRNA synthetase (MARS2), endogenous in A549 cells (protein, UniProt Q96GW9 30-593)
chain: SSGSLSAGDDACDVRAYFTTPIFYVNAAPHIGHLYSALLADALCRHRRLRGPSTAATRFSTGTDEHGLKIQQAAATAGLAPTELCDRVSEQFQQLFQEAGISCTDFIRTTEARHRVAVQHFWGVLKSRGLLYKGVYEGWYCASDECFLPEAKVTQQPGPSGDSFPVSLESGHPVSWTKEENYIFRLSQFRKPLQRWLRGNPQAITPEPFHHVVLQWLDEELPDLSVSRRSSHLHWGIPVPGDDSQTIYVWLDALVNYLTVIGYPNAEFKSWWPATSHIIGKDILKFHAIYWPAFLLGAGMSPPQRICVHSHWTVCGQKMSKSLGNVVDPRTCLNRYTVDGFRYFLLRQGVPNWDCDYYDEKVVKLLNSELADALGGLLNRCTAKRINPSETYPAFCTTCFPSEPGLVGPSVRAQAEDYALVSAVATLPKQVADHYDNFRIYKALEAVSSCVRQTNGFVQRHAPWKLNWESPVDAPWLGTVLHVALECLRVFGTLLQPVTPSLADKLLSRLGVSASERSLGELYFLPRFYGHPCPFEGRRLGPETGLLFPRLDQSRTWLVKAHRT
